Reference: publication PMC13226697, “Stress-induced OMA1-mediated cleavage of AIFM1 suppresses cell growth by controlling mitochondrial OXPHOS activity” (The EMBO Journal, 2026)
These are yes or no findings as the source states them, for the method shown. In cells and extracts the contact can be indirect. Binding can be weak; no strength is given.

Chains of the proteins cited; added tags and fusions are not shown. Lines headed by an entry give the natural chain unless they say otherwise; changes in a name come on top.
UniProt O95831: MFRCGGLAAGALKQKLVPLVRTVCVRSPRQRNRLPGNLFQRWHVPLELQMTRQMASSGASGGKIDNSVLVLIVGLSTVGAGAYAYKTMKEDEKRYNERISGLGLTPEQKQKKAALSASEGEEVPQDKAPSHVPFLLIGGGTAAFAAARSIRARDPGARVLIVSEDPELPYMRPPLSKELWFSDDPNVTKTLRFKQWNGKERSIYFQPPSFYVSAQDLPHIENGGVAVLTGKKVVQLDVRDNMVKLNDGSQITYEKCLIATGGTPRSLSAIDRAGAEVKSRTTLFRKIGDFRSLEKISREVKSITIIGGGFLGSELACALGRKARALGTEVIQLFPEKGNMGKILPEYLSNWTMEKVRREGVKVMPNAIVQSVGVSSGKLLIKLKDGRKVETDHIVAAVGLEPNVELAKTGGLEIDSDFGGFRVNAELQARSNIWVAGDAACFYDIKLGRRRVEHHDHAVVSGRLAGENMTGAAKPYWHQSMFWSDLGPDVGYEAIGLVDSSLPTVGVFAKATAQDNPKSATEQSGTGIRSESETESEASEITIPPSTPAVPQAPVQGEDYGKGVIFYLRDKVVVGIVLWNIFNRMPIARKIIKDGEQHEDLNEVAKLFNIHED

Assays:
[1] = biological target: T1, TIM23, endogenous human (human (endogenous in Flp-In T-REx-293 and HeLa)) (UniProt O14925); experiment: co-IP; HeLa lysates, with or without CHX (10 μg/mL), immunoprecipitated with anti-TIM23 monoclonal antibody or control IgG (anti-GFP), western blot
T1 sequence: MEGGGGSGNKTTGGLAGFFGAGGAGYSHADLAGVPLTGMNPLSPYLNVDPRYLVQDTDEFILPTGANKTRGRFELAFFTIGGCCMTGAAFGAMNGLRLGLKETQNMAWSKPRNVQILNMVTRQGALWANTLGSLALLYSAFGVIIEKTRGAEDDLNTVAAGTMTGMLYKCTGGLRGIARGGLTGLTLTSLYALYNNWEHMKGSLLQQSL

[2] = biological target: T1, TIM23, endogenous human (human (endogenous in Flp-In T-REx-293 and HeLa)); experiment: proximity ligation; HeLa cells, antibody pairs (AIFM1 polyclonal, TIM23 monoclonal), with or without CHX

binding [1]: binds
binding [2]: binds
Substance: AIFM1, endogenous human (from UniProt O95831)
